{
  "sequences": {"note": "By UniProt entry, the sequences of proteins in these tests, tags left out. Where a name states a change or a piece, a line headed by the entry shows the natural chain unless it says otherwise.", "UniProt P18054": "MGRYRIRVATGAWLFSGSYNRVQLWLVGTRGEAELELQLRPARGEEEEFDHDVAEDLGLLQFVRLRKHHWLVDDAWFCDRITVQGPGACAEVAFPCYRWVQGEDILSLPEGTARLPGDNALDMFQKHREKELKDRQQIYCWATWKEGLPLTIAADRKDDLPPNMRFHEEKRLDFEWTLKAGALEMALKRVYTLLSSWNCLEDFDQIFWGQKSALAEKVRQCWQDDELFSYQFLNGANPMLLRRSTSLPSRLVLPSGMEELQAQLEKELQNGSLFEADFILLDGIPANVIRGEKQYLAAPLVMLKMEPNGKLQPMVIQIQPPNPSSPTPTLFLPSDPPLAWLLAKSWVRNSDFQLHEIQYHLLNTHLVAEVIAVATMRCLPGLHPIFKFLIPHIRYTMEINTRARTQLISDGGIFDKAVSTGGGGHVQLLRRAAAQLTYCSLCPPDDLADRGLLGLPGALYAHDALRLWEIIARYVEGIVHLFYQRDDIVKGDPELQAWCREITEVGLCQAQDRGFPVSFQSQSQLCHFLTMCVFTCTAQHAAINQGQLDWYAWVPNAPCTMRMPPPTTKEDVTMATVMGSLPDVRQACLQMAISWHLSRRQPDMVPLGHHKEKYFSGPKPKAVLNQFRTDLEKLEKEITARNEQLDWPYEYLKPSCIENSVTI"},
  "source": "PubChem BioAssay AID1671190",
  "about": "(National Center for Advancing Translational Sciences (NCATS), 2021)",
  "note": "In all, about 580,000 compounds went through this assay and about 6,100 (1.1%) were called active. The shares of active, inactive and inconclusive entries below differ from those in the screen. The call rests on the fitted dose curve; in most records, active means well fitted inhibition curve with a large enough effect; inconclusive means small, poorly fitted or top-dose-only effect, or another doubt; inactive means no such curve, though single readings can be large or run the other way. A potency beside an inconclusive call is a rough fit, not a confirmed value. On the % scale 0 is the no-effect control and ±100 the full control effect; potency means the concentration at half of the fitted maximal effect.",
  "data": [
    {"biological_target": "Polyunsaturated fatty acid lipoxygenase ALOX12 (Homo sapiens) (UniProt P18054)", "test": "Primary qHTS assay for inhibitors of human arachidonate 12S-lipoxygenase (ALOX12): Round 2", "conditions": "purified 12hLO, xylenol orange hydroperoxide absorbance; activity change, negative = inhibition: at 108 µM (top of the series) unless noted", "how_it_was_run": "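Purified human 12hLO (150 nM final) in 25 mM Hepes, 0.01% Triton X-100, pH 7.0 was preincubated 15 min at room temperature with compound. Then 40 uM arachidonic acid was added, 30 min. Hydroperoxide was read by Fe-XO absorbance ratio 573/405 nm.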", "values": [
      {"compound": "CN(CCCNc1cc(C(=O)N2CCOCC2)c2ccccc2n1)C1CCCCC1", "activity change, negative = inhibition": "inactive: -1.74%"},
      {"compound": "O=C1CCCC2=C1C(c1ccc(Cl)cc1)c1c([nH]n(-c3ccccc3)c1=O)N2", "note": "(stereo not given)", "Potency": "inconclusive: 25.1 µM [inhibitor, partial curve]"},
      {"compound": "COc1ccc(-c2nc3cnc(N4CCN(C)CC4)nc3n(Cc3cccc(OC)c3)c2=O)cc1", "Potency": "inconclusive: 39.8 µM [inhibitor, partial curve, poor fit]"},
      {"compound": "COc1ccccc1N1CCN(C2CCCN(Cc3ccc(Cl)cc3)C2)CC1", "note": "(stereo not given)", "activity change, negative = inhibition": "inactive: -2.54%"},
      {"compound": "Cc1onc(-c2cnn(C)c2NCCc2ccccc2)c1C(=O)N1CCC(c2ccccc2)CC1", "activity change, negative = inhibition": "inactive: 2.46%"},
      {"compound": "Cc1ccc(NC(=O)CC2Sc3ccc(C(F)(F)F)cc3NC2=O)cc1", "note": "(stereo not given)", "activity change, negative = inhibition": "inactive: -21.9%"},
      {"compound": "CC(=O)c1cccc(NC(=O)CN2C(=O)c3ccccc3C2=O)c1", "activity change, negative = inhibition": "inactive: 10.1%"},
      {"compound": "COC(=O)c1c(C)cc(C)c2c1CC(C)(C)C2=O", "Potency": "inconclusive: 112 µM [inhibitor, single point]"},
      {"compound": "COc1ccccc1C(=O)Nc1c(C(=O)Nc2ccccc2F)oc2ccccc12", "activity change, negative = inhibition": "inactive: -19.7%"},
      {"compound": "O=C(C=Cc1ccco1)c1ccc([N+](=O)[O-])cc1", "Potency": "inconclusive: 44.7 µM [inhibitor, partial curve, poor fit]"},
      {"compound": "Cc1cc(Cl)ccc1OCC(=O)N1CCC(c2nc3ccccc3s2)CC1", "Potency": "inconclusive: 79.4 µM [inhibitor, partial curve, poor fit]"},
      {"compound": "Nc1nc(SCC(=O)O)[nH]c(=O)c1NC(=O)c1ccco1", "Potency": "inconclusive: 44.7 µM [inhibitor, partial curve]"},
      {"compound": "CCCCCOc1ccc(CSC(=N)N)cc1[N+](=O)[O-]", "Potency": "inconclusive: 17.8 µM [inhibitor, partial curve, poor fit]"},
      {"compound": "Cc1nnc(SCC2=C(C(=O)O)N3C(=O)C(NC(=O)COc4ccc(F)cc4)C3SC2)s1", "note": "(stereo not given)", "Potency": "inconclusive: 3.55 µM [inhibitor, full curve, poor fit]"},
      {"compound": "Cc1cc(C(=O)N/N=C/c2ccc(-c3ccccc3Cl)o2)n[nH]1", "activity change, negative = inhibition": "inactive: -19.2%"},
      {"compound": "O=C(Nc1cccc(-c2nc3ccccc3o2)c1)C(F)(F)F", "Potency": "inconclusive: 22.4 µM [inhibitor, full curve, poor fit]"},
      {"compound": "COc1ccc(-c2nc(-c3c(C)noc3C)cc3c2cc(C)n3CCN(C)C)cc1OC", "Potency": "inconclusive: 11.2 µM [inhibitor, full curve]"},
      {"compound": "COc1ccc(C=O)c(OCc2cn(CC(=O)c3ccc(O)cc3)nn2)c1", "Potency": "active: 1.26 µM"},
      {"compound": "CCC1(CC)Cc2ccccc2-c2nc(NN)[nH]c(=O)c21", "activity change, negative = inhibition": "inactive: 12.1%"},
      {"compound": "C[C@]12CCC(=O)C=C1[C@@H]1CC1[C@H]1[C@H]3[C@@H]4C[C@H]4[C@@]4(CCC(=O)O4)[C@@]3(C)CC[C@H]12", "note": "(stereo not given in full)", "activity change, negative = inhibition": "inconclusive: -45.1% [inhibitor] [at 57.4 µM]"},
      {"compound": "Cc1ncc(CO)c(C=O)c1O", "Potency": "inconclusive: 18.1 µM [inhibitor, single point]"},
      {"compound": "Cc1c(-c2ccccc2)c(=O)oc2cc(OS(=O)(=O)c3ccc(Br)cc3)ccc12", "activity change, negative = inhibition": "inactive: 8.92%"},
      {"compound": "CC(C)c1onc(C(=O)Nc2sc3c(c2C#N)CCC3)c1[N+](=O)[O-]", "Potency": "inconclusive: 44.7 µM [inhibitor, partial curve, poor fit]"},
      {"compound": "Cc1cc(Cl)c(OCCOCCN2CCCCC2)c(Br)c1", "Potency": "inconclusive: 0.316 µM [inhibitor, full curve, poor fit]"},
      {"compound": "Cc1c(C)n(-c2ccc(Cl)cc2)c2ncn(CC(=O)NC(C)c3ccccc3)c(=O)c12", "note": "(stereo not given)", "Potency": "active: 25.1 µM"},
      {"compound": "COc1ccc(S(=O)(=O)NC2CCN(C(=O)Nc3cc(Cl)ccc3OC)CC2)cc1", "Potency": "inconclusive: 39.8 µM [inhibitor, partial curve, poor fit]"},
      {"compound": "Brc1cccc(CN2CCN(c3ncccn3)CC2)c1", "Potency": "inconclusive: 112 µM [inhibitor, single point]"},
      {"compound": "Cc1ccc(C)c(-n2ccnc2SCC(=O)O)c1", "Potency": "inconclusive: 50.1 µM [inhibitor, partial curve, poor fit]"},
      {"compound": "CN(C)c1ccc(N=NS(=O)(=O)O)cc1", "Potency": "inconclusive: 24.6 µM [inhibitor, partial curve]"},
      {"compound": "CN(C)C1(CN=Cc2cc(Cl)cc([N+](=O)[O-])c2O)CCCCC1", "Potency": "active: 17.8 µM"},
      {"compound": "Cc1ncc(CO)c(/C=N/N=C/c2ccccc2O)c1O", "activity change, negative = inhibition": "inactive: 10.5%"},
      {"compound": "O=C(COc1ccc(Cl)cc1)N(Cc1ccco1)C1CCS(=O)(=O)C1", "note": "(stereo not given)", "Potency": "inconclusive: 100 µM [inhibitor, single point]"},
      {"compound": "COc1ccc(NC2c3ccccc3C(=O)N2Cc2ccco2)cc1OC", "note": "(stereo not given)", "activity change, negative = inhibition": "inactive: -8.22%"},
      {"compound": "CCC(c1nnnn1Cc1cccs1)N1CCN(C2CCCC2)CC1", "note": "(stereo not given)", "Potency": "inconclusive: 15.8 µM [inhibitor, partial curve, poor fit]"},
      {"compound": "Nc1ncc(S(=O)(=O)Nc2ccc(F)cc2F)cn1", "Potency": "inconclusive: 50.1 µM [inhibitor, partial curve, poor fit]"},
      {"compound": "Cc1cc(OCCN2CCCCC2)nc2ccccc12", "Potency": "inconclusive: 31.6 µM [inhibitor, partial curve, poor fit]"},
      {"compound": "CC(=O)N1C(C)(C)CC(=NOS(=O)(=O)c2ccccc2)CC1(C)C", "Potency": "inconclusive: 56.2 µM [inhibitor, partial curve, poor fit]"},
      {"compound": "O=CNc1ccccc1Oc1ccccc1", "Potency": "inconclusive: 20 µM [inhibitor, partial curve, poor fit]"},
      {"compound": "CC[n+]1cc(C)ccc1/C=C/c1ccc(N(C)C)cc1", "Potency": "inconclusive: 50.1 µM [inhibitor, partial curve, poor fit]"},
      {"compound": "O=C(O)C/C(=C\\c1cc(Cl)c2c(c1)OCO2)c1nc2ccccc2s1", "Potency": "inconclusive: 50.1 µM [inhibitor, partial curve, poor fit]"},
      {"compound": "O=C(O)CC(CCc1ccccc1)OC1OC(CO)C(O)C(O)C1O", "note": "(stereo not given)", "Potency": "active: 44.7 µM"},
      {"compound": "OC(c1cccc(Cl)c1)c1nc(/C=C/c2ccc(C(F)(F)F)cc2)cs1", "note": "(stereo not given)", "Potency": "inconclusive: 50.1 µM [inhibitor, partial curve, poor fit]"},
      {"compound": "COc1ccc(Cl)cc1NC(=O)Cn1c(=O)c(-c2ccccc2NC(C)=O)nc2ccccc21", "activity change, negative = inhibition": "inactive: -3.25%"},
      {"compound": "O=C(Nc1ccccc1[N+](=O)[O-])c1cc(S(=O)(=O)N2CCOCC2)cs1", "activity change, negative = inhibition": "inactive: 0%"},
      {"compound": "CC(=O)c1c(C)oc2ccc(NS(=O)(=O)c3ccc4ccccc4c3)cc12", "activity change, negative = inhibition": "inactive: 2.5%"},
      {"compound": "CSc1cccc(NC(=S)N2CCC(c3ccccc3)C2)c1", "note": "(stereo not given)", "Potency": "inconclusive: 39.8 µM [inhibitor, partial curve, poor fit]"},
      {"compound": "O=C(NC(CC1CCCCC1)C(=O)O)c1ccccc1", "note": "(stereo not given)", "activity change, negative = inhibition": "inactive: -1.89%"},
      {"compound": "CCCCC(=O)N1CCc2cc(OC)c(OC)cc2C1COc1ccc(OC)cc1", "note": "(stereo not given)", "activity change, negative = inhibition": "inactive: 9.4%"},
      {"compound": "COC(=O)c1ccccc1NC(=O)Cn1c(=O)cc(C)c2c(C)nn(C)c21", "activity change, negative = inhibition": "inactive: -19.8%"},
      {"compound": "CCCn1c(-n2nc(C)cc2C)nc2c1c(=O)n(CCN1CCCCC1)c(=O)n2C", "activity change, negative = inhibition": "inactive: -4.67%"},
      {"compound": "Cc1ccc(C2=NN(C(=O)CNc3ccc(C(=O)N(C)C)cc3)C(c3ccco3)C2)o1", "note": "(stereo not given)", "Potency": "inconclusive: 56.2 µM [inhibitor, single point]"},
      {"compound": "O=C(/C=C/c1ccco1)c1cccc([N+](=O)[O-])c1", "Potency": "active: 25.1 µM"},
      {"compound": "O=C(Nc1ccc(Cl)c(C(F)(F)F)c1)c1c(F)cccc1F", "activity change, negative = inhibition": "inactive: -27.2%"},
      {"compound": "Cc1ccc(NS(=O)(=O)c2ccc(C(=O)OCC(=O)c3ccc[nH]3)cc2)cc1", "Potency": "inconclusive: 39.8 µM [inhibitor, partial curve, poor fit]"},
      {"compound": "Cc1ccc(C(=O)N2CCC3(CC2)NC(=O)N(c2ccccc2)N3)cc1", "Potency": "active: 1.26 µM"},
      {"compound": "Cc1cc(C)c(OCC(=O)Nc2ccc(S(=O)(=O)N3CCCC3)cc2)c(C)c1", "Potency": "inconclusive: 39.8 µM [inhibitor, partial curve, poor fit]"},
      {"compound": "CN1/C(=C\\C(=S)NC(=O)c2ccc([N+](=O)[O-])cc2)C(C)(C)c2ccccc21", "Potency": "inconclusive: 44.7 µM [inhibitor, partial curve]"},
      {"compound": "Cc1ccc2cc(CCNC(=O)C3CCCCC3)c(=O)[nH]c2c1C", "activity change, negative = inhibition": "inactive: 3.44%"},
      {"compound": "CC1CCN(S(=O)(=O)c2ccc(NC(=O)CN3CCN(C)CC3)cc2)CC1", "Potency": "inconclusive: 0.355 µM [inhibitor, full curve, poor fit]"},
      {"compound": "COc1ccc(-c2nc(C)sc2C)cc1", "Potency": "inconclusive: 39.8 µM [inhibitor, partial curve]"},
      {"compound": "O=C(NC[C@H]1O[C@@H](CC(=O)N2CCN(c3ccc(F)cc3)CC2)[C@H](O)[C@@H]1O)c1ccc(F)c(Cl)c1", "activity change, negative = inhibition": "inactive: 0.97%"},
      {"compound": "O=C(O)c1cc2nc(-c3ccccc3)cc(-c3ccccc3)n2n1", "activity change, negative = inhibition": "inactive: -10.2%"},
      {"compound": "CCCn1ccc2oc(C)c(C(=O)NCc3ccc(CC)cc3)c2c1=O", "Potency": "inconclusive: 35.5 µM [inhibitor, full curve]"},
      {"compound": "O=C(CCCSc1ccc(Cl)cc1)Nc1cc(S(=O)(=O)N2CCOCC2)ccc1O", "Potency": "inconclusive: 25.1 µM [inhibitor, partial curve, poor fit]"},
      {"compound": "Cc1cccc(N2C(=S)NC3c4cc(Cl)ccc4OC2(C)C3C(=O)N(C)C)c1", "note": "(stereo not given)", "Potency": "inconclusive: 44.7 µM [inhibitor, partial curve]"},
      {"compound": "CC(C)CCN1C(=O)CC[C@]2(C(=O)N3CCN(C(C)C)CC3)CCCC[C@@H]12", "activity change, negative = inhibition": "inactive: 5.65%"},
      {"compound": "Cc1ccc(N(CCC#N)C(=O)COC(=O)c2cc(C)oc2C)cc1", "Potency": "inconclusive: 100 µM [inhibitor, single point]"},
      {"compound": "CN1CCC(=C(c2ccccc2)c2ccc(Br)cc2)CC1", "Potency": "inconclusive: 39.8 µM [inhibitor, partial curve, poor fit]"},
      {"compound": "COc1ccc(-c2nc(C#N)c(N3CCN(C(=O)c4cccs4)CC3)o2)cc1", "activity change, negative = inhibition": "inactive: 20.4%"},
      {"compound": "CC(C)(C)NC(=O)COc1ccc(CNCc2cccnc2)cc1", "Potency": "inconclusive: 35.5 µM [inhibitor, partial curve, poor fit]"}
    ]}
  ]
}
